From PubChem BioAssay AID602296 (Broad Institute, 2012)
Hit rate of the full screen: of about 2,000 compounds, about 190 (9.5%) were called active. Another 14% or so got no clear call; they are omitted.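 How the source made its calls: active means fitted activation curve crossing 40% at a concentration no higher than the sample's top valid tested dose; inconclusive means flat fitted curve at 30% to 70% activation, or poor curve fit; inactive means signal decrease, flat curve within 30%, or the rest.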 This part holds few or none of the hits.

Assay: sustained heat shock response element induction – cell-based, mouse, luciferase, cherry-pick, dose, confirmation (AID 602296);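 further: test compounds applied by themselves with no MG132 co-treatment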
Settings: NIH3T3-HGL HSF-1 response element luciferase, 48 h; at 26 µM (top of the series) unless noted

activation, inactive:
O=C(Nc1ccc(Cl)cc1)Nc1csc([N+](=O)[O-])c1 16.5%
COc1ccc(NS(=O)(=O)c2cccc(C(=O)N(C)Cc3ccc(SC)cc3)c2)cc1 -25.7%
Cc1cccc(-c2cc(C(=O)Nc3ccncc3)c3ccccc3n2)c1 -1.62%
CCOC(=O)C(=CNc1ccc(C#N)cc1)C(=O)OCC 5.11%
O=C(Nc1ccccc1N1CCN(C(=O)c2ccc(Cl)cc2)CC1)c1cccc([N+](=O)[O-])c1 14.5%
CCCCCCC1CCC(C(=O)NC(CCSC)C(=O)NC(C(=O)OC)C(C)C)CC1 (stereo not given) 3.61%
O=[N+]([O-])c1cccc(-c2ccc3nnc(SCc4ccccn4)n3n2)c1 6.4%
COc1ccc(CNC(=O)CCC(=O)N2CC(C)Oc3ccccc32)cc1 (stereo not given) 0.672%
Cc1ccccc1-c1cc(=O)c2c(O)cccc2o1 18.5%
C=CCSc1nc(-c2ccc(OC)cc2)c(C#N)c(=O)n1CC=C -29.2%
COC(=O)c1ccc2c(c1O)C(=O)c1ccccc1C2=O 4.71%
CCc1cccc(NS(=O)(=O)c2ccc3c(c2)NC(=O)C(C)S3)c1 (stereo not given) -41.7%
CCN(CC)S(=O)(=O)c1ccc2c(c1)nc(SCC(=O)NC1CC1)n2-c1ccccc1OC -3.87%
CCC(=NC(C)c1ccccc1)c1c(O)n(C)c(=O)n(C)c1=O (stereo not given) -26.4%
Cc1ccc(/C=N/N(Cc2ccccc2)c2ccccc2)o1 -5.13%
COc1ccc(CCN=C(NS(=O)(=O)c2ccccc2)c2ccccc2)cc1OC 7.5%
CCC(=O)OCCNc1cc(Sc2nccn2C)c2nonc2c1[N+](=O)[O-] -101%
COc1ccccc1CNC(=O)c1ccc(NS(=O)(=O)c2cccs2)cc1 13.6%
CSc1nc(-c2ccccc2)nc(C(Cl)Cl)n1 -96.7%
O=C(CN(C(=O)c1csnn1)c1ccc(F)c(Cl)c1)NCc1ccc(F)cc1 -5.21%
CC(Nc1cc(N2CCNCC2)ccc1[N+](=O)[O-])c1ccccc1 (stereo not given) -1.04%
COc1ccc(CCNC(=O)Nc2cccc([N+](=O)[O-])c2)cc1OC -9.08%
COc1ccc(/C=N/Nc2cc(C)nc3ccc(Br)cc23)cc1 -106%
O=C(Nc1ccccc1O)c1cccc(S(=O)(=O)Nc2ccccc2O)c1 7.3%
Cc1ccc(/C=C/C(=O)Nc2ccc(S(=O)(=O)Nc3cc(C)nc(C)n3)cc2)cc1 -32.4%

Already shown: entries from further up.
activation, inactive:
CCC(=NC(C)c1ccccc1)c1c(O)n(C)c(=O)n(C)c1=O (stereo not given) -26.4%
Cc1ccc(/C=N/N(Cc2ccccc2)c2ccccc2)o1 -5.13%
